In article PMC7862247:
Results are given in words; binding and its absence hold for the method and conditions named. In cells and extracts the contact can be indirect. Some results given as binding are weak or reduced against the parent protein; the word gives no strength. For part of these data: Where a sequence is shown, tags or fusion partners need not be part of it.

By UniProt entry, the sequences of proteins in these tests, tags left out.
UniProt Q9WTL8: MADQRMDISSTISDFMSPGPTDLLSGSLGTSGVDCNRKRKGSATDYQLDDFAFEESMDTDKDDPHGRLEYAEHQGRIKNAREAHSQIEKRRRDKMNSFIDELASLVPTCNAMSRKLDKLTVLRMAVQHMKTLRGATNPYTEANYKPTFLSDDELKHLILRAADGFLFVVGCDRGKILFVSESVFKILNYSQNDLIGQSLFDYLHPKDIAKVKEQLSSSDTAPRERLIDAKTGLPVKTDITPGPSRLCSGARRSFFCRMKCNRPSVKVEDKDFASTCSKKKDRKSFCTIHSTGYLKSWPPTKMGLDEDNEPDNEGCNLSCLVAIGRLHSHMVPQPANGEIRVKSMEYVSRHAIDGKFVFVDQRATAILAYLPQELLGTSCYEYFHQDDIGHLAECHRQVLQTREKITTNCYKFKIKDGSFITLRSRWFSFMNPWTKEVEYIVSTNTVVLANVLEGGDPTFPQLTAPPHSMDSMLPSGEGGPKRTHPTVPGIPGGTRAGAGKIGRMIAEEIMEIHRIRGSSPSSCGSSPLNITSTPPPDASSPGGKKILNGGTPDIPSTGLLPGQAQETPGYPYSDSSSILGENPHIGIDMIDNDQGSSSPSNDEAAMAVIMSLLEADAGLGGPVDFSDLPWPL
UniProt O00327: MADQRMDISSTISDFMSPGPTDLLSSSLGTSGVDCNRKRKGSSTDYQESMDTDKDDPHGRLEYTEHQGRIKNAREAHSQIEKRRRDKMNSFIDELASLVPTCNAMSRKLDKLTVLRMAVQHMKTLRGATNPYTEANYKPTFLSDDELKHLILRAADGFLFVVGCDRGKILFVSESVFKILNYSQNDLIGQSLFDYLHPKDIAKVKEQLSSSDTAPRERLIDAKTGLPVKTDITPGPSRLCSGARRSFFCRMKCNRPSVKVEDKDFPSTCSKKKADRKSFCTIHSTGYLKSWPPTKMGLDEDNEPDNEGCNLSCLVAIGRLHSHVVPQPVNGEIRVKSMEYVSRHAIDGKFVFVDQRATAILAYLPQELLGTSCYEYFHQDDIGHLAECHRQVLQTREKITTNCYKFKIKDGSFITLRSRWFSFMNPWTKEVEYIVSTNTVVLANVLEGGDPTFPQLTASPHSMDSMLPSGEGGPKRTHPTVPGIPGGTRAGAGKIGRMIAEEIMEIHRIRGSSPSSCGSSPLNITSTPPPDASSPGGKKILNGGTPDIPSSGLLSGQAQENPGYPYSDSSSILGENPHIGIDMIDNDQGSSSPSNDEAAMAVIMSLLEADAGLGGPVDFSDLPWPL

Tests used:
[1] = target: T1, DISC1, endogenous (mouse) (mouse (endogenous in MEFs and mouse brain)) (UniProt Q811T9); assay: co-IP; endogenous proteins in mouse brain lysate (homogenised in Nonidet P-40 buffer), Protein A beads, 4 °C, immunoblot; precipitating antibody not given
T1 sequence: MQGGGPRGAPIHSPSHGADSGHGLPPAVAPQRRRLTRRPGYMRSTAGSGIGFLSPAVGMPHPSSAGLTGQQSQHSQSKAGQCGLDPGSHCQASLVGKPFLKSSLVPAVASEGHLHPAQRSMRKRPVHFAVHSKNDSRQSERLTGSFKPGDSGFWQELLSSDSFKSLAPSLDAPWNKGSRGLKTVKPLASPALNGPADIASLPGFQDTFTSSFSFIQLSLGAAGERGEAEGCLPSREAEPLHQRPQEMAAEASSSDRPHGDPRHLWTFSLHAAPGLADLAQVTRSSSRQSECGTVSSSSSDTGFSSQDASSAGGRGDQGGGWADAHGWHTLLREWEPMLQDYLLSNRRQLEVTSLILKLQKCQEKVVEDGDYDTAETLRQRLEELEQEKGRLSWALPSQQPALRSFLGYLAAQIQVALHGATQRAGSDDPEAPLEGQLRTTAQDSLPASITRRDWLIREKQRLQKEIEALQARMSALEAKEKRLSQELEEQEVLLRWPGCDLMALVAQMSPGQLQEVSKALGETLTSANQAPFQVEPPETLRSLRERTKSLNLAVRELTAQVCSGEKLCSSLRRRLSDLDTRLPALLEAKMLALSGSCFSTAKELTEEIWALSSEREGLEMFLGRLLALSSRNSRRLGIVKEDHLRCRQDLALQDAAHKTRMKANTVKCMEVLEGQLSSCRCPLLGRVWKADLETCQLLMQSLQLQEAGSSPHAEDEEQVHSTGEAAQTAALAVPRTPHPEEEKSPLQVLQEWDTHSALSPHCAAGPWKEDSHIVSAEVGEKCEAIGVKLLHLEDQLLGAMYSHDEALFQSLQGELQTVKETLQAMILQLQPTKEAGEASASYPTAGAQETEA

[2] = target: T1, DISC1, endogenous (mouse) (mouse (endogenous in MEFs and mouse brain)); assay: co-IP; endogenous proteins in MEF lysate; Nonidet P-40 buffer, Protein A beads, 4 °C, immunoblot; precipitating antibody not given
[3] = target: T2, Flag-DISC1 (human Disrupted-in-schizophrenia 1) (human) (UniProt Q9NRI5); assay: co-IP; Flag-DISC1 and GFP-BMAL1 transfected in HEK293 cells, precipitated with Flag-DISC1; Nonidet P-40 buffer (50 mM Tris-Cl pH 8.0, 150 mM NaCl, 1% NP40, 5 mM EDTA), Protein A beads, 4 °C, immunoblot
T2 sequence: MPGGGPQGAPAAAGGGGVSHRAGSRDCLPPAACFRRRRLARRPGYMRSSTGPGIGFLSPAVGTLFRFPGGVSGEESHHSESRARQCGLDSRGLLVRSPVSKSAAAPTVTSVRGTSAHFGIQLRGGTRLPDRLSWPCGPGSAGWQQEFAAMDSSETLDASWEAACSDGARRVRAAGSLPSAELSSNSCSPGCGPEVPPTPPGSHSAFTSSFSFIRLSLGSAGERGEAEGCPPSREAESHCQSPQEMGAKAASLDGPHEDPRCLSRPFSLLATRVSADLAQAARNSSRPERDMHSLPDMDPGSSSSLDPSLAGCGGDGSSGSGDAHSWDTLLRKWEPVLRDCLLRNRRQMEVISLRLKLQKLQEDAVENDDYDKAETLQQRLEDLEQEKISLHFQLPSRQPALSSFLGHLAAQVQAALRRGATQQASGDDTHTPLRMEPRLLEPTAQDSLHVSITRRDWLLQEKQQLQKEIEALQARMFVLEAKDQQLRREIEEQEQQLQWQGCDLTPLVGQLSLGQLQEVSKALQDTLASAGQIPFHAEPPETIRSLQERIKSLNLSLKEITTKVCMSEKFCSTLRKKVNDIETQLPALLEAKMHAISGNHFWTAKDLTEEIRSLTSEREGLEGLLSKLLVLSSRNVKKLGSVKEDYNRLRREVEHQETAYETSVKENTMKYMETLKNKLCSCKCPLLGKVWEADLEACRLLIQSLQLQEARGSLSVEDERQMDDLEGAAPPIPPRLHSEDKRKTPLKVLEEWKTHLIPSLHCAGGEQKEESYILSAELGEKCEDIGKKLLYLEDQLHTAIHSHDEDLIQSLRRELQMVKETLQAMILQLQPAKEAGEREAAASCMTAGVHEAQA

Row | Substance | binding [1] | binding [2] | binding [3]
1 | BMAL1, endogenous (mouse) (from UniProt Q9WTL8 1-632) | binds | binds | 
2 | GFP-BMAL1 (human Brain and muscle Arnt-like protein-1) (from UniProt O00327 1-626) |  |  | binds
